Measurements reported in the supplement of paper PMC10849652.
This is one part of the list.

Protein sequences, listed by entry. Tags and fused reporters are not part of them. Lines headed by an entry give the natural chain unless they say otherwise; changes in a name come on top.
UniProt O95466, whole entry, looked up: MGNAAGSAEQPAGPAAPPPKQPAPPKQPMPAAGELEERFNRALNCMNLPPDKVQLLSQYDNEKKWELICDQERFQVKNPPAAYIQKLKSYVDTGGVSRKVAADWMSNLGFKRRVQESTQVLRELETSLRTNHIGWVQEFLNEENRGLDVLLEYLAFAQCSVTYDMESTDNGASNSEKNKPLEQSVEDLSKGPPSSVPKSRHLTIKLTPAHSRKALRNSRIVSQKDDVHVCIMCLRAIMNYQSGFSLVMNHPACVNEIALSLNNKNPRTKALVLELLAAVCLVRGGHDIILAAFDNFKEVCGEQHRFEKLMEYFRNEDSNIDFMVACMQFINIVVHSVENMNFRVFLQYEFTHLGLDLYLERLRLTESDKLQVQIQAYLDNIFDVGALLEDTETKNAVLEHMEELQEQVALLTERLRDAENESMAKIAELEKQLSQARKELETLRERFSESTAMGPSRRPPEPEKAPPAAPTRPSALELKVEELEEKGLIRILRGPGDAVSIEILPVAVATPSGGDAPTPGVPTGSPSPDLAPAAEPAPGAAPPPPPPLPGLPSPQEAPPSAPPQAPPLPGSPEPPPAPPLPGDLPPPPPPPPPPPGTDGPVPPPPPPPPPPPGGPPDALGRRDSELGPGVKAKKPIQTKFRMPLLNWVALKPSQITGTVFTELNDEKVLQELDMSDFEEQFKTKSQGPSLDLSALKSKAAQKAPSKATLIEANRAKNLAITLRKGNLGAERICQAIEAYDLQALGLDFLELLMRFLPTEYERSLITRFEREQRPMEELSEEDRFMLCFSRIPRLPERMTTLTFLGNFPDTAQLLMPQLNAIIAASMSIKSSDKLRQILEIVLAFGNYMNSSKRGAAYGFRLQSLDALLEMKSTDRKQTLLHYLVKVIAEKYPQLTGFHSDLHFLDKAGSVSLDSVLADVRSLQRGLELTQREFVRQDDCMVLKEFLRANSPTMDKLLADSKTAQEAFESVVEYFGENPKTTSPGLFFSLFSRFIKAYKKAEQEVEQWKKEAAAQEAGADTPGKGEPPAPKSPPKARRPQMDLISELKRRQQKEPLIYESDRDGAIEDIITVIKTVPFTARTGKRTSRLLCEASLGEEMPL
UniProt Q92562: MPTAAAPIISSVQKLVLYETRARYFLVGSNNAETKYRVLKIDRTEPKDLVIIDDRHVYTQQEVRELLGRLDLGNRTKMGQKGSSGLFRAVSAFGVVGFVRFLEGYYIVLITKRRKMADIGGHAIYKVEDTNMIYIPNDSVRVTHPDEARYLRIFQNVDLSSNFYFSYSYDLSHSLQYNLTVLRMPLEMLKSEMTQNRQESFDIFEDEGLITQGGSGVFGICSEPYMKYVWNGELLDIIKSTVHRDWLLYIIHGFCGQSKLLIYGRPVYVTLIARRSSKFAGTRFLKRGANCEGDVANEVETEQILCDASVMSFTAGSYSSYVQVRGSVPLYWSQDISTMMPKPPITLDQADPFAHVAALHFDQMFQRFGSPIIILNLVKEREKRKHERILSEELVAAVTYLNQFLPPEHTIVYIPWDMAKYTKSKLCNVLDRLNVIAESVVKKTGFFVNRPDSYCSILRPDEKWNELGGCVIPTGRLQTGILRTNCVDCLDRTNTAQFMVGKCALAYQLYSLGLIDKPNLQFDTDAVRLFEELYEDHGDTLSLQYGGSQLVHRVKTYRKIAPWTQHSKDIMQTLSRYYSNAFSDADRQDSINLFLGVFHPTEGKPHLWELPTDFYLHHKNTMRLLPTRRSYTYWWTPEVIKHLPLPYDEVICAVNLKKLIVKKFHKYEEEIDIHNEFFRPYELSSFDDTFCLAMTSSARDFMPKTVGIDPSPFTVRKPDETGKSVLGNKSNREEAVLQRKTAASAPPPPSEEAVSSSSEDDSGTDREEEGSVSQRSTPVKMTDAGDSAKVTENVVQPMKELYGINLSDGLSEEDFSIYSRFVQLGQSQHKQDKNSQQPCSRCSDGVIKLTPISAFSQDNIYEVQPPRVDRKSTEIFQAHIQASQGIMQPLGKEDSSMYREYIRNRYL
UniProt Q5T0N5: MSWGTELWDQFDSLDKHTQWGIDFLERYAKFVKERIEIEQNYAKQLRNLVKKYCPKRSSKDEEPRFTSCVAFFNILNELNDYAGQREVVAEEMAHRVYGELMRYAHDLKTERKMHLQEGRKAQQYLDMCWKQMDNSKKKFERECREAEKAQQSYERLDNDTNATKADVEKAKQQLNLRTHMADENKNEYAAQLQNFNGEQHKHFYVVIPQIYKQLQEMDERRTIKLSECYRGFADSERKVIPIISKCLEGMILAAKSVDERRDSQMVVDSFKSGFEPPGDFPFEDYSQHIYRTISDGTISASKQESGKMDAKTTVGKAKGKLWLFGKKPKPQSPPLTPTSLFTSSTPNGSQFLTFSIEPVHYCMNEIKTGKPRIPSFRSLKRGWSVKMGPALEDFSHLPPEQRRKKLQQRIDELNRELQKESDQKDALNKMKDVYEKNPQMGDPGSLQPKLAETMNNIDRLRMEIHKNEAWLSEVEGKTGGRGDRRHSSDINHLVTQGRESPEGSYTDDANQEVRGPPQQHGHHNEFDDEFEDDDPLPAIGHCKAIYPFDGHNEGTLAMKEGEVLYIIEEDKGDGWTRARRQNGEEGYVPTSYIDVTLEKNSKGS
UniProt Q9Y680: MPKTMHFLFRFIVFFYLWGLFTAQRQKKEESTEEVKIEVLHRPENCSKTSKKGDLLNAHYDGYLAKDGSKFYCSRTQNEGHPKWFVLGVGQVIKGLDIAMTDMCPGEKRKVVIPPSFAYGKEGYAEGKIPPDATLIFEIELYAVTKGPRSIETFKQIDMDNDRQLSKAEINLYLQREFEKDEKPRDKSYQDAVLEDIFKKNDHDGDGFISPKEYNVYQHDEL
UniProt Q9Y3I1: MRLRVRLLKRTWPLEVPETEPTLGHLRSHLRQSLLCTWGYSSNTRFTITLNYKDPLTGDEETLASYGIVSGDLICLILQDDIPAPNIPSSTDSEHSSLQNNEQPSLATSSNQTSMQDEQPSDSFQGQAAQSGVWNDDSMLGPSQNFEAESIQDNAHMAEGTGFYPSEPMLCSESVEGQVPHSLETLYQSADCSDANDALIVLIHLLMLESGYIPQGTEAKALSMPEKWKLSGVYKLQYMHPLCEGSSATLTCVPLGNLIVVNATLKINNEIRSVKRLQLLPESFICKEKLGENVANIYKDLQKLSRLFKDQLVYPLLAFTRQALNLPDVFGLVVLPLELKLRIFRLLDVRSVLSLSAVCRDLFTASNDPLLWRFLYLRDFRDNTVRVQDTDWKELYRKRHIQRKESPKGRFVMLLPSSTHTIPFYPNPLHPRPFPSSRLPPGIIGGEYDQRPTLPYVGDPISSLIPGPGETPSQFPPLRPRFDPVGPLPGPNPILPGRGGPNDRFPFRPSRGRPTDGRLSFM
UniProt Q9NWM8: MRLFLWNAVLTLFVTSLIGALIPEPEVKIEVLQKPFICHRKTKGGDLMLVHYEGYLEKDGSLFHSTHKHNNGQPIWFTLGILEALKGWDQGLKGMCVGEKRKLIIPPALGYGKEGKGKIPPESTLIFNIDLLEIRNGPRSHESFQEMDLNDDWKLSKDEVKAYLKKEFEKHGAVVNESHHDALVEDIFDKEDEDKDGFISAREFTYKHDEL
UniProt O75369, whole entry, looked up: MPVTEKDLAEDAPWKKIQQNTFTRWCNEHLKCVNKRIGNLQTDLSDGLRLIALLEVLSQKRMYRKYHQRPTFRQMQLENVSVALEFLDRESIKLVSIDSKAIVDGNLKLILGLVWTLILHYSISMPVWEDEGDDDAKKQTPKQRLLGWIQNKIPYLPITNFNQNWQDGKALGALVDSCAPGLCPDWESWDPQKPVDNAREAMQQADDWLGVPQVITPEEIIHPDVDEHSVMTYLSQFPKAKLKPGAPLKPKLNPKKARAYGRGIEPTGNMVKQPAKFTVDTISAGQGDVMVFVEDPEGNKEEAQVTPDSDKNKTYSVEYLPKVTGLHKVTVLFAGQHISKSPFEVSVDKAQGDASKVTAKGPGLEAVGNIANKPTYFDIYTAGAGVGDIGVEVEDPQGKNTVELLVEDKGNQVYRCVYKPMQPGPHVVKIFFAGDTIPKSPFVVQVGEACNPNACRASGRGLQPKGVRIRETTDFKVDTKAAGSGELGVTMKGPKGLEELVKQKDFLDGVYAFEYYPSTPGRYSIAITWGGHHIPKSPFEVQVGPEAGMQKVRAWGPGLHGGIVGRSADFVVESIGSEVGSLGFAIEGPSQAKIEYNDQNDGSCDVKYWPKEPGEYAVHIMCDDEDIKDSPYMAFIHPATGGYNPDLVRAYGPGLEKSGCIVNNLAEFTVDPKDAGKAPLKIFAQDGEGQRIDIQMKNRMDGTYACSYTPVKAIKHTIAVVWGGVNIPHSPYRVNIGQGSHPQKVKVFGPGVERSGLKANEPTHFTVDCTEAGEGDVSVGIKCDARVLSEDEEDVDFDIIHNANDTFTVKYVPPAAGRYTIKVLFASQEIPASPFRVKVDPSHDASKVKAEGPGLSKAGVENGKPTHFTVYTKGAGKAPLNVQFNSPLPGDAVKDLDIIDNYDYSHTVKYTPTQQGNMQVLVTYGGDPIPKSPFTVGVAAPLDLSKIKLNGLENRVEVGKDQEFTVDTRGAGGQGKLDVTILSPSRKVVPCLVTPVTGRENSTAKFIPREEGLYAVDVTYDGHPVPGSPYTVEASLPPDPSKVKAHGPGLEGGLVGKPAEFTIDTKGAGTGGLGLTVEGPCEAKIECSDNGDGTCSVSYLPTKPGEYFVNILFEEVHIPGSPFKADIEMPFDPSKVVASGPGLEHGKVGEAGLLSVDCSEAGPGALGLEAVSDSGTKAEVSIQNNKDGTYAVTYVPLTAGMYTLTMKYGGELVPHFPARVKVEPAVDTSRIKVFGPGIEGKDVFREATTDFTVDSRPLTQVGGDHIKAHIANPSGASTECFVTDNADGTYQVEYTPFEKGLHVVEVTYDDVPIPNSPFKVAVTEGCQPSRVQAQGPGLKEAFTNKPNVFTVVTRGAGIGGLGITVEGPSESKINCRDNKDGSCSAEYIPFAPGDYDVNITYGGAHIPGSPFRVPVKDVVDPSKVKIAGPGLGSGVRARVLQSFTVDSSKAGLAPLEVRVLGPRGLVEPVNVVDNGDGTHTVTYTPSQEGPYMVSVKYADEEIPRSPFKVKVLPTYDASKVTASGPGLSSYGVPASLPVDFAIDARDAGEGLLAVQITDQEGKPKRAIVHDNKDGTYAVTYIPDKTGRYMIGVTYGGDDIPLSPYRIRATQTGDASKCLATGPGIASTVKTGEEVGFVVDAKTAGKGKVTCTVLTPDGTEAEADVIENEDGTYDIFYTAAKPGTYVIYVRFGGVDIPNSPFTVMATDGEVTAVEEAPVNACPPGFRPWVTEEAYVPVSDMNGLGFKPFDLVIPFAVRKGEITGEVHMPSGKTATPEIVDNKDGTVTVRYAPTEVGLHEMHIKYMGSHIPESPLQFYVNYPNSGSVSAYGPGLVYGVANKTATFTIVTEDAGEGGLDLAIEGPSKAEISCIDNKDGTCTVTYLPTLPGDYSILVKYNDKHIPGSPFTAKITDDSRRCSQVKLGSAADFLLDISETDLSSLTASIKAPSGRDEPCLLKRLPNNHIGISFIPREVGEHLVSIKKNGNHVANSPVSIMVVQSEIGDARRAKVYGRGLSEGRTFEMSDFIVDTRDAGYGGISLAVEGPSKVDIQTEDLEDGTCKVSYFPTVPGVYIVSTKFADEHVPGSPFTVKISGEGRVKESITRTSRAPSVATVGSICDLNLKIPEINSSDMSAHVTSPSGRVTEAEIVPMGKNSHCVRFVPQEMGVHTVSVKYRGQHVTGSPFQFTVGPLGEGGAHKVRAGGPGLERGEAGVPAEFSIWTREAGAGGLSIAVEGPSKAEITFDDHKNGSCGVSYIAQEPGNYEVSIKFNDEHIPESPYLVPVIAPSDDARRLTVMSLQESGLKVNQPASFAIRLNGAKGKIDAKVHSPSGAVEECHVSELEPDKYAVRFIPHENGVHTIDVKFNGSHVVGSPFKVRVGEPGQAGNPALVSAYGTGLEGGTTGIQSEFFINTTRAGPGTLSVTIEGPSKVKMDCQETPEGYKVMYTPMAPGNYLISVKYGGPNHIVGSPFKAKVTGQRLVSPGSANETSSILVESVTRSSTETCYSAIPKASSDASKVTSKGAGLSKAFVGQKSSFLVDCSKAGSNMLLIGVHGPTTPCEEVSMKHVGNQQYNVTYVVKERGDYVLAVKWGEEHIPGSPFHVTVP
UniProt Q9UBU6: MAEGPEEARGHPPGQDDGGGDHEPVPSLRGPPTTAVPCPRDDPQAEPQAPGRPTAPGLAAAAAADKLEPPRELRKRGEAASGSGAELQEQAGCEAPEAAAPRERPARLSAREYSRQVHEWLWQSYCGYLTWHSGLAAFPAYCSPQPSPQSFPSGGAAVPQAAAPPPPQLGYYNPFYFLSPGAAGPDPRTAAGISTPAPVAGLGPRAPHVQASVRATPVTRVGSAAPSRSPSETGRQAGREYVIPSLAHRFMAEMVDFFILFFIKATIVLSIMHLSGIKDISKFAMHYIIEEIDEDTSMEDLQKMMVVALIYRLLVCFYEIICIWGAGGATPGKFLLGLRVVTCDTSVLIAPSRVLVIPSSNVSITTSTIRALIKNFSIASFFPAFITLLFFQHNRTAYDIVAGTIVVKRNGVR

Assays:
Assay in all cases: log2 fold change, soluble protein after heating vs DMSO (PISA); higher = thermal stabilisation; K562 lysate, 10 uM; active = over 0.2 and 3.5 SD of the protein, either way, in both replicates (recomputed)
erlotinib = compound: C#Cc1cccc(Nc2ncnc3cc(OCCOC)c(OCCOC)cc23)c1 [erlotinib]
Outline: (§1)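 Quantification was by TMTpro 16plex LC-MS/MS with equalised channel sums, applied to the supernatant after 21,000xg for 90 min. Samples were crude K562 extract at 1 mg/mL protein in PBS pH 7.4 with 1 mM MgCl2, treated with 10 μM compound for 30 min, heated for 3 min across 48°C-58°C, pooled and brought to 0.5% NP-40 at 4°C. Values are log-two fold changes in thermal stability relative to solvent controls, from duplicates.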

[1] = compound: C/C(=N\NC(=O)C1=CC(=CC=C1)S(=O)(=O)N2CCOCC2)/C3=C(C=CC(=C3)Cl)O
Outline: as §1

[2] = compound: C1=CC(=CC=C1C2=NC3=C(N2)C=C(C=C3)C(=O)N)OC4=CC=C(C=C4)Cl
Outline: as §1

[3] = compound: C1=CC2=C(C=CC(=C2)/C=C\3/C(=O)NC(=NCC4=CC=CS4)S3)N=C1
Outline: as §1

[4] = compound: C1=CC2=NC=CN=C2C=C1/C=C/3\C(=O)NC(=O)S3
Outline: as §1

[5] = compound: C1=CC=C(C=C1)C2=NC(=C(N2)C3=CC=NC=C3)C4=CC(=C(C=C4)Cl)O
Outline: as §1

[6] = compound: C1=CC=C2C(=C1)C3=NNC4=CC=CC(=C43)C2=O
Outline: as §1

[7] = compound: C1CCN(C1)C(=O)NC2=CC=CC(=C2)NC3=NC=C(C(=N3)NCCC4=CN=CN4)Br
Outline: as §1

[8] = compound: C1CN(CCC1(CC2=CC=C(C=C2)Cl)N)C3=NC=NC4=C3C=CN4
Outline: as §1

IRAK-1-4 Inhibitor I = compound: C1COCCN1CCN2C3=CC=CC=C3N=C2NC(=O)C4=CC(=CC=C4)[N+](=O)[O-] [IRAK-1-4 Inhibitor I]
Outline: as §1

ibrutinib = compound: C=CC(=O)N1CCC[C@@H](n2nc(-c3ccc(Oc4ccccc4)cc3)c3c(N)ncnc32)C1 [ibrutinib]
Outline: as §1

[9] = compound: CC(=O)c1cnc2ccc(-c3cc(Cl)c(O)c(Cl)c3)nc2c1N[C@H]1CC[C@H](CN(C)C)CC1
Outline: as §1

ralimetinib = compound: CC(C)(C)Cn1c(N)nc2ccc(-c3[nH]c(C(C)(C)C)nc3-c3ccc(F)cc3)nc21 [ralimetinib]
Outline: as §1

[10] = compound: CC(C)(O)CC(=O)NCCn1ccc2ncnc(Nc3ccc(Oc4cccc(C(F)(F)F)c4)c(Cl)c3)c21
Outline: as §1

[11] = compound: CC(C)C1=C2N=C(C=C(N2N=C1)NCC3=CC=CC=C3)NCCCCCCN
Outline: as §1

[12] = compound: CC1=C(C(CC(=O)N1)C2=CC=C(C=C2)C(F)(F)F)C(=O)NC3=C(C=C4C(=C3)C=NN4)F
Outline: as §1

[13] = compound: CC1=C(C2=C(C=C1)C(=O)C3=CC=CC=C3N2CCCN)C
Outline: as §1

[14] = compound: CC1=C(C=C(C=C1)NC(=O)C2=CC(=CC=C2)C(C)(C)C#N)NC3=CC4=C(C=C3)N=CN(C4=O)C
Outline: as §1

[15] = compound: CC1=C(C=C(C=C1)NC(=O)C2=CC(=CC=C2)N(C)C)NC(=O)C3=CC=C(C=C3)O
Outline: as §1

[16] = compound: CC1=CC=C(C=C1)SC2=C3C=C(SC3=CN=C2)C(=O)N
Outline: as §1

Measured: log2 fold change

FCHO2 (UniProt Q0JRZ9)
inactive: erlotinib -0.017 | [1] -0.007 | [2] 0.031 | [3] 0.023 | [4] 0.001 | [5] 0.01 | [6] -0.008 | [7] -0.058 | [8] -0.008 | IRAK-1-4 Inhibitor I -0.056 | ibrutinib 0.052 | [9] -0.005 | ralimetinib 0.04 | [10] -0.008 | [11] -0.004 | [12] 0.052 | [13] -0.082 | [14] -0.009 | [15] -0.003 | [16] 0.011

FMNL1 isoform 3 (UniProt O95466)
inactive: erlotinib -0.045 | [1] 0.045 | [2] -0.006 | [3] -0.102 | [4] -0.062 | [5] -0.004 | [6] 0.018 | [7] -0.006 | [8] 0.019 | IRAK-1-4 Inhibitor I -0.009 | ibrutinib 0.043 | [9] -0.002 | ralimetinib 0.038 | [10] -0.02 | [11] 0.023 | [12] 0.099 | [13] 0.03 | [14] 0.073 | [15] 0.015 | [16] 0.001

FIG4 (UniProt Q92562)
inactive: erlotinib 0.032 | [1] -0.032 | [2] -0.029 | [3] 0 | [4] 0.007 | [5] 0.064 | [6] 0.02 | [7] 0.061 | [8] -0.053 | IRAK-1-4 Inhibitor I 0.003 | ibrutinib 0.14 | [9] -0.07 | ralimetinib -0.01 | [10] -0.115 | [11] -0.012 | [12] -0.248 | [13] 0.029 | [14] -0.093 | [15] -0.085 | [16] 0.012

FNBP1L (UniProt Q5T0N5)
inactive: erlotinib 0.015 | [1] -0.018 | [2] 0.013 | [3] 0.031 | [4] 0.044 | [5] 0.066 | [6] 0 | [7] -0.012 | [8] -0.061 | IRAK-1-4 Inhibitor I -0.016 | ibrutinib 0.034 | [9] -0.006 | ralimetinib 0.055 | [10] -0.082 | [11] -0.003 | [12] 0 | [13] 0.066 | [14] -0.007 | [15] 0.035 | [16] 0.034

FKBP7 (UniProt Q9Y680)
inactive: erlotinib -0.062 | [1] -0.006 | [2] -0.013 | [3] 0.011 | [4] -0.042 | [5] 0.01 | [6] -0.01 | [7] -0.015 | [8] 0.011 | IRAK-1-4 Inhibitor I -0.005 | ibrutinib 0.088 | [9] -0.016 | ralimetinib -0.003 | [10] -0.11 | [11] -0.005 | [12] 0.053 | [13] 0.068 | [14] 0.024 | [15] 0.018 | [16] 0.001

FBXO7 (UniProt Q9Y3I1)
inactive: erlotinib -0.026 | [1] 0.027 | [2] 0.04 | [3] -0.009 | [4] 0.006 | [5] -0.002 | [6] -0.029 | [7] -0.037 | [8] -0.015 | IRAK-1-4 Inhibitor I 0.035 | ibrutinib -0.002 | [9] -0.018 | ralimetinib -0.003 | [10] -0.022 | [11] 0.02 | [12] 0.034 | [13] -0.003 | [14] -0.007 | [15] 0.018 | [16] -0.002

FBXL18 isoform 4 (UniProt Q96ME1)
inactive: erlotinib 0.007 | [1] -0.034 | [2] 0.035 | [3] -0.058 | [4] -0.029 | [5] 0.011 | [6] -0.005 | [7] -0.007 | [8] 0.036 | IRAK-1-4 Inhibitor I 0.025 | ibrutinib -0.008 | [9] 0.015 | ralimetinib -0.005 | [10] -0.023 | [11] -0.015 | [12] 0.006 | [13] -0.028 | [14] -0.029 | [15] 0.013 | [16] -0.001

Looked up one by one from above (two):
FNBP1L (UniProt Q5T0N5)
inactive: erlotinib 0.015 | [1] -0.018 | [2] 0.013 | [3] 0.031 | [4] 0.044 | [5] 0.066 | [6] 0 | [7] -0.012 | [8] -0.061 | IRAK-1-4 Inhibitor I -0.016 | ibrutinib 0.034 | [9] -0.006 | ralimetinib 0.055 | [10] -0.082 | [11] -0.003 | [12] 0 | [13] 0.066 | [14] -0.007 | [15] 0.035 | [16] 0.034

FKBP7 (UniProt Q9Y680)
inactive: erlotinib -0.062 | [1] -0.006 | [2] -0.013 | [3] 0.011 | [4] -0.042 | [5] 0.01 | [6] -0.01 | [7] -0.015 | [8] 0.011 | IRAK-1-4 Inhibitor I -0.005 | ibrutinib 0.088 | [9] -0.016 | ralimetinib -0.003 | [10] -0.11 | [11] -0.005 | [12] 0.053 | [13] 0.068 | [14] 0.024 | [15] 0.018 | [16] 0.001

Next part:

FKBP14 (UniProt Q9NWM8)
inactive: erlotinib -0.005 | [1] 0.022 | [2] 0.032 | [3] -0.011 | [4] 0.005 | [5] -0.03 | [6] -0.004 | [7] -0.004 | [8] -0.017 | IRAK-1-4 Inhibitor I 0.015 | ibrutinib -0.016 | [9] -0.007 | ralimetinib 0.03 | [10] -0.036 | [11] 0.005 | [12] -0.01 | [13] 0.024 | [14] -0.061 | [15] -0.037 | [16] 0.03

FER (UniProt P16591)
inactive: erlotinib 0.157 | [1] 0.006 | [2] -0.223 | [3] -0.107 | [4] -0.197 | [5] -0.196 | [6] 0.047 | [7] -0.009 | [8] -0.072 | IRAK-1-4 Inhibitor I 0.311 | ibrutinib 0.103 | [9] -0.121 | ralimetinib 0.036 | [10] 0.022 | [11] -0.209 | [12] 0.305 | [13] -0.099 | [14] -0.063 | [15] 0.038 | [16] -0.139

FLNB isoform 8 (UniProt O75369)
inactive: erlotinib 0.003 | [1] 0.006 | [2] 0.013 | [3] 0 | [4] -0.002 | [5] -0.009 | [6] 0.01 | [7] -0.008 | [8] 0.001 | IRAK-1-4 Inhibitor I 0.008 | ibrutinib 0.016 | [9] -0.01 | ralimetinib 0.001 | [10] -0.009 | [11] -0.008 | [12] -0.007 | [13] 0.026 | [14] 0.02 | [15] 0 | [16] -0.011

FASTKD2 (UniProt Q9NYY8)
inactive: erlotinib 0.028 | [1] 0.041 | [2] -0.005 | [3] 0.03 | [4] 0.019 | [5] -0.007 | [6] -0.018 | [7] 0.013 | [8] 0.002 | IRAK-1-4 Inhibitor I 0.016 | ibrutinib -0.008 | [9] -0.006 | ralimetinib -0.004 | [10] -0.039 | [11] -0.013 | [12] 0.003 | [13] -0.007 | [14] 0.034 | [15] -0.001 | [16] 0.024

FCGR2A (UniProt P12318)
inactive: erlotinib -0.025 | [1] -0.021 | [2] 0.048 | [3] -0.028 | [4] -0.013 | [5] -0.067 | [6] 0.008 | [7] 0.014 | [8] 0.027 | IRAK-1-4 Inhibitor I 0.028 | ibrutinib 0.054 | [9] 0.019 | ralimetinib 0.002 | [10] -0.039 | [11] -0.02 | [12] -0.043 | [13] 0.042 | [14] 0.018 | [15] -0.001 | [16] -0.029

FDXR isoform 7 (UniProt P22570)
inactive: erlotinib -0.003 | [1] -0.259 | [2] -0.015 | [3] 0.001 | [4] 0.013 | [5] 0.015 | [6] -0.044 | [7] 0.021 | [8] 0.046 | IRAK-1-4 Inhibitor I -0.011 | ibrutinib 0.002 | [9] 0.007 | ralimetinib 0.028 | [10] 0.043 | [11] -0.007 | [12] -0.004 | [13] -0.035 | [14] -0.038 | [15] 0.046 | [16] 0.004

FAM8A1 (UniProt Q9UBU6)
inactive: erlotinib -0.065 | [1] 0.165 | [2] -0.013 | [3] 0.042 | [4] 0.02 | [5] 0.006 | [6] -0.024 | [7] 0.01 | [8] -0.029 | IRAK-1-4 Inhibitor I 0.07 | ibrutinib 0.065 | [9] -0.022 | ralimetinib -0.001 | [10] -0.032 | [11] 0.051 | [12] 0.088 | [13] -0.066 | [14] -0.083 | [15] -0.056 | [16] -0.061

FLOT1 (UniProt O75955)
inactive: erlotinib 0.005 | [1] -0.022 | [2] -0.005 | [3] -0.003 | [4] -0.005 | [5] 0.011 | [6] -0.035 | [7] -0.009 | [8] 0.024 | IRAK-1-4 Inhibitor I 0.01 | ibrutinib -0.005 | [9] 0.005 | ralimetinib -0.013 | [10] -0.032 | [11] -0.009 | [12] -0.002 | [13] -0.003 | [14] 0.013 | [15] -0.008 | [16] -0.025
